For 79 substances, growth estimate results are on record in the supplement of paper PMC5949888.

Most values lie at the floor of the assay. Slopes are relative: functional sequences can read slightly below zero. A value given as a limit tells only on which side of the number the result lay.

The test system of this data set is Saccharomyces cerevisiae PS128 hsf1 delta, HSF1(1-493) fusion. The data set is described as follows: growth estimate (transactivation domain function in HSF1 fusion, heat-shock survival) (a.u. (slope of normalised read count over time)); higher = stronger growth at 37°C, i.e. more transactivation activity. The following applies: library: random library.
On to LRGSRRRFDIPVFTPGKWFV, for which the growth estimate was under -0.25.
Under GVTRFIGSRYSRFFA stands under -0.25.
For the substance LGVRFDVNYLSGTKSRRNTG, the growth estimate is under -0.25.
On to KKNRSMRQDLNLAFQARVTV, for which the growth estimate is under -0.25.
As for PRSPTQRKQVRTPL, the growth estimate is under -0.25.
For WGVTLEPRIDSEGQGMYMPG, the growth estimate is -0.173.
As for PVRVCDL, the growth estimate was under -0.25.
Turning to PDANLAFG, the growth estimate is under -0.25.
On to RSHRRVSPLMQY, for which the growth estimate was under -0.25.
SQYCPELLVAIWLLWTPHCS: the growth estimate was under -0.25.
On to GLLDHEFANTVGSKWSRLRK, for which the growth estimate was -0.0918.
In the case of RRQV, the growth estimate is under -0.25.
With VRRAKP, the growth estimate was under -0.25.
SSAQVISPIYNW: the growth estimate is under -0.25.
Regarding FLHRLST, the growth estimate is under -0.25.
For SMTPLPVTLRLFVRRLDLYT, the growth estimate was under -0.25.
With MTKGRVDY, the growth estimate is under -0.25.
On to CVGWIT, for which the growth estimate was under -0.25.
For ETAMREEEWLKRPRPR, the growth estimate was under -0.25.
As for VTRRC, the figure is under -0.25; as for GYGVPLALEGSHGDFWPQSG, under -0.25; as for ARGIVQTRSRLSAGSSYHIP, under -0.25.
As for VELKN, the figure is -0.239.
Consider CQKTFCLKASELGVASAPSC, for which the growth estimate was under -0.25.
For the substance GTWAISMA, the growth estimate is under -0.25.
Regarding KVRGIPWFP, the growth estimate is under -0.25.
Under LRTYQNEYRRKDNNGDRCDA stands under -0.25.
For GIIFR, the growth estimate was under -0.25.
Regarding TAIRIGVVCCHCS, the growth estimate is under -0.25.
Under RGWTATYEHCPILNRSRVLS stands -0.246; under LTRRFGTLGGGVGVSMTWGN, under -0.25.
Consider SKHSLMRT, for which the growth estimate is under -0.25.
Consider FSMKPHTPRRMATFSAPAIM, for which the growth estimate was under -0.25.
Under FAEGRTFGRGFLT stands under -0.25.
Consider NDDLCVRGSGVIEAIEYSQR, for which the growth estimate was under -0.25.
With ATGVPARRQIVVETSPFTFM, the growth estimate was under -0.25.
As for AGKVSPSVTA, the figure is under -0.25; as for PCVKWLWES, -0.245.
As for NMNIRIGAPKNPVIIRSP, the figure is under -0.25.
Under SQPLHVQGS stands under -0.25; under RTAPGCALR, under -0.25.
Turning to RQL, the growth estimate is under -0.25.
In the case of DVRIIRDT, the growth estimate is under -0.25.
On to LWPTEIRVQ, for which the growth estimate was under -0.25.
With RLPNNDVPRWLSISGVPNCS, the growth estimate is under -0.25.
Regarding RALYRRNYITPRL, the growth estimate was under -0.25.
As for RRRPHSVTAPARCKPFTIAS, the figure is under -0.25.
RNSMRL: the growth estimate was under -0.25.
In the case of PVDKANK, the growth estimate is under -0.25.
For QVLASVSTGALQQPLCLCVG, the growth estimate is under -0.25.
Turning to SAWGLEGQRLSSKR, the growth estimate is under -0.25.
Under DCWVEGAFVAGMSHN stands under -0.25; under FWVSIRLSGLCPFNGPGSFS, under -0.25.
On to RGRTFSPR, for which the growth estimate is under -0.25.
On to GVSTVWVMNPSRSILAFLED, for which the growth estimate is -0.235.
For the substance FLFYGSLRVPVCPVSSH, the growth estimate was under -0.25.
As for GEGVSSMGRRWHHCISR, the figure is under -0.25; as for VRLGLGRSSRLRSSWPCASR, under -0.25; as for REFDVFFAGI, -0.0584.
With NSYVKVARLMCKYGDASGTQ, the growth estimate was under -0.25.
Regarding RRNGSWAPSAM, the growth estimate was -0.246.
Under LGRLTRELGRGECFLERYPR stands under -0.25; under WQVTGNGKWRPLKRQRSHPA, under -0.25; under LWGPIHVGVIRRPELYWV, -0.231.
For the substance LGLGSGLEG, the growth estimate was under -0.25.
Consider RMRCPLVLQSGATRRFTRSR, for which the growth estimate is under -0.25.
Consider YCVLEKPIGSPTARASTGEH, for which the growth estimate is under -0.25.
Regarding KAFESASRRGVFARNTLCGI, the growth estimate is under -0.25.
As to GVRAKAF, the growth estimate was under -0.25.
With TGYVAEESGLVTTMRGETRG, the growth estimate is -0.192.
YTPGVLGTRVIRGLGCGVVD: the growth estimate is under -0.25.
Turning to HPRGRSGSGRLVRNVTSIVG, the growth estimate is under -0.25.
As to GHKRTLDVQATGTTGGGQAG, the growth estimate is under -0.25.
NNLPVWFDTSHPIGSRLAPA: the growth estimate is under -0.25.
SELEEVVVFGRFRG: the growth estimate was under -0.25.
As for CPFRMYYSLRAPRCAAELSP, the figure is under -0.25; as for ESSVRNGCVHADLLSRPRHL, under -0.25.
With RFHSCLAATRSWWRGAAPLW, the growth estimate was under -0.25.
VIMGS: the growth estimate is under -0.25.
